Test results from PMC10692919.
Results are given in words; binding and its absence hold for the method and conditions named. Sequences can lack the tags named with a protein.

Sequences of proteins named here, by UniProt entry; tags and fusion partners are left off. Residues count along the entry.
UniProt P22004, residues 375-513: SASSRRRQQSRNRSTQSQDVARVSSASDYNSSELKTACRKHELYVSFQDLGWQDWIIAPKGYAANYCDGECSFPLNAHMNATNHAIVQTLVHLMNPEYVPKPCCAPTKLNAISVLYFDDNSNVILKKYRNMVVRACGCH

Experiments:
Assay in all cases: SPR; Biacore T200, CM5 chip; BMP2, BMP6 or BMP2/6 immobilised by amine coupling (50 μg/ml); FLAG-ERFE variants made in HEK293T as analyte; HBS-EP (0.15 M NaCl, 3 mM EDTA, 0.005% P20, 0.01 M Hepes pH 7.4), 50 μl/min; KD = koff/kon at five concentrations; the paper calls the constants avidities where binding is presumed multivalent; only the target purified
BMP6 homodimer = BMP6 homodimer (UniProt P22004)
BMP2/6 heterodimer = BMP2/6 heterodimer (UniProt P12643)
BMP2 homodimer = target: T1, BMP2 homodimer (UniProt P12643)
T1 sequence: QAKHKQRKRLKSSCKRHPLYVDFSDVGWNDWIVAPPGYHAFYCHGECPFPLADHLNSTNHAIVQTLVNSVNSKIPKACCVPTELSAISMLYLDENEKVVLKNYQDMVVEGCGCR

Measured: binding

B1: ERFE C terminus (globular head), 186-354, FLAG-tagged (domain or fragment, UniProt Q4G0M1 186-354)
chain: LALLAAPLAPGPRAPRVEAAFLCRLRRDALVERRALHELGVYYLPDAEGAFRRGPGLNLTSGQYRAPVAGFYALAATLHVALGEPPRRGPPRPRDHLRLLICIQSRCQRNASLEAIMGLESSSELFTISVNGVLYLQMGQWTSVFLDNASGCSLTVRSGSHFSAVLLGV
no binding: all assays above
